In PubChem BioAssay AID1671190 (National Center for Advancing Translational Sciences (NCATS), 2021):
Hit rate of the full screen: of about 580,000 compounds, about 6,100 (1.1%) were called active. Inconclusive results, whose numbers are uncertain, are shown with a selection of clear calls. The call rests on the fitted dose curve; in most records, active means well fitted inhibition curve with a large enough effect; inconclusive means small, poorly fitted or top-dose-only effect, or another doubt; inactive means no such curve, though single readings can be large or run the other way. Potencies of inconclusive entries are doubtful fits and often do not repeat.

Amino acid sequences for entries named in this document (tags omitted). A change or cut given only in a name is not applied to a line headed by its entry.
UniProt P18054: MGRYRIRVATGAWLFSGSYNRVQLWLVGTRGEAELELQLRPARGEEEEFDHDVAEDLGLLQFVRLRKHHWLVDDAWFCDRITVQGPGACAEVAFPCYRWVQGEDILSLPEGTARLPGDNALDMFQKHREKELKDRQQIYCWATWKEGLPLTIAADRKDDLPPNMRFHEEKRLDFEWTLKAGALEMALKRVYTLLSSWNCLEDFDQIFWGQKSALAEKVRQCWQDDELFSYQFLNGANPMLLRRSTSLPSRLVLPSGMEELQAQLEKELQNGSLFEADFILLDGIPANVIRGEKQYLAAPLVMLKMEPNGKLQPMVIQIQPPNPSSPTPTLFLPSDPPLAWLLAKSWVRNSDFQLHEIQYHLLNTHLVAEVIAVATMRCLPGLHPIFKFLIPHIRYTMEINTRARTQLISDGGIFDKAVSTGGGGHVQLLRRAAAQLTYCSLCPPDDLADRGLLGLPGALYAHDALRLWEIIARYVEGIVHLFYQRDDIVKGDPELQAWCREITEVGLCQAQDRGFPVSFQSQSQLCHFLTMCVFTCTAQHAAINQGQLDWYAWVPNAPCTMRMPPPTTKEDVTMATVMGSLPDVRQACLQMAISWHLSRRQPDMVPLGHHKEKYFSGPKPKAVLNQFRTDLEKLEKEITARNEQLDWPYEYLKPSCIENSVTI

Target: Polyunsaturated fatty acid lipoxygenase ALOX12 (Homo sapiens) (UniProt P18054)
Experiment: Primary qHTS assay for inhibitors of human arachidonate 12S-lipoxygenase (ALOX12): Round 2
Conditions: purified 12hLO, xylenol orange hydroperoxide absorbance; activity change, negative = inhibition: at 108 µM (top of the series) unless noted
In short: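 Hydroperoxide product was detected by ferrous iron/xylenol orange as the 573 to 405 nm absorbance ratio. Arachidonic acid at 40 uM (final) was turned over for 30 min at room temperature by 150 nM human 12hLO, pH 7.0 Hepes buffer, after 15 min compound preincubation.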
On the % scale 0 is the no-effect control and ±100 the full control effect; potency means the concentration at half of the fitted maximal effect.

SMILES	activity change, negative = inhibition	Potency
Cn1c(CSc2nnc(SCc3ccccc3)s2)nc2ccccc21	inactive: -2.68%	–
C/C(=N\O)C1(C)N(O)C(C)(C)C(c2ccco2)=[N+]1[O-] (centres undefined)	inactive: -7.7%	–
O=C(Nc1cc(F)ccc1F)c1cc(-c2ccco2)nc2ccccc12	–	inconclusive: 50.1 µM [inhibitor, partial curve, poor fit]
Cc1ccc(C(=O)Nc2ccc(C(=O)N/N=C/c3c[nH]c4ccccc34)cc2)cc1	inactive: -10.5%	–
CC(C)c1nnc(NC(=O)c2cc(=O)c3cc(Cl)cc(Cl)c3o2)s1	inactive: 9.9%	–
CC(OCCN1CCCC1)(c1ccc(F)cc1)c1ccc(F)cc1	–	inconclusive: 39.8 µM [inhibitor, partial curve]
N#Cc1nc(C2CC2)oc1N1CCN(Cc2ccccc2F)CC1	–	inconclusive: 50.1 µM [inhibitor, partial curve, poor fit]
CC[C@@H]1CC2C3CCC4=C/C(=N/O)CC[C@]4(C)C3CC[C@]2(C)[C@H]1/C(C)=N/O (some centres undefined)	–	inconclusive: 79.4 µM [inhibitor, single point]
COCCNC(=O)C1CCN(c2nc3ccccc3nc2C(F)(F)F)CC1	inactive: -1.53%	–
CCCCNS(=O)(=O)c1ccc(Br)cc1N1CCC[C@H]1CO	–	inconclusive: 100 µM [inhibitor, partial curve, poor fit]
O=C(CCCn1ccnc1)N1CCn2nc(C(O)Cc3ccccc3)cc2C1 (centres undefined)	inactive: 36.3%	–
C/C(=N\NC(=S)N/N=C(\C)c1ccccc1)c1ccccc1	inactive: -28.3%	–
CC1CCN(CCCCOc2ccc(C(C)(C)C)cc2)CC1	inactive: -2.93%	–
Cc1[nH]c2ccc(-c3n[nH]c(=S)n3-c3ccccc3)cc2c1C	–	inconclusive: 44.7 µM [inhibitor, partial curve, poor fit]
CC1CCN(c2ccccc2NC(=S)NC(=O)C(C)(C)C)CC1	–	active: 39.8 µM
Cc1cccc(NC(=S)NC2CC3CCCC(C2)N3Cc2ccccc2)c1C (centres undefined)	inactive: -11.5%	–
COc1ccccc1NC(=S)N(Cc1ccco1)Cc1cc2cc(C)cc(C)c2[nH]c1=O	–	inconclusive: 56.2 µM [inhibitor, partial curve, poor fit]
Cc1ccc(NC(=O)COc2coc(CN3CCc4ccccc43)cc2=O)c(C)c1	–	inconclusive: 39.8 µM [inhibitor, partial curve, poor fit]
CNC(=O)N1CCC(C2CCN(S(=O)(=O)C(C)C)C2)CC1 (centres undefined)	inactive: 15.6%	–
COc1ccc(S(=O)(=O)N2CCN(c3ccccc3OC)CC2)cc1OC	–	inconclusive: 100 µM [inhibitor, partial curve, poor fit]
CCCCc1nc2sc3c(=O)[nH]c(=S)[nH]c3c2c2c1CCC2	–	inconclusive: 44.7 µM [inhibitor, partial curve, poor fit]
Cc1cc(=O)[nH]c(N/N=C/c2cc(C)n(CC(F)(F)F)c2C)n1	inactive: 12.3%	–
CC(O)(CS(=O)(=O)Cc1ccc(Cl)cc1)C(=O)Nc1cccc(C(F)(F)F)c1 (centres undefined)	–	active: 3.16 µM

SMILES	activity change, negative = inhibition	Potency
C#CCNC(=O)C1=C[C@@H](c2ccc(C#C)cc2)C[C@@H](OCCCCO)O1	–	inconclusive: 6.31 µM [inhibitor, full curve, poor fit]
COc1cc(/C=C(/C#N)c2nc(-c3cc4ccccc4oc3=O)cs2)cc([N+](=O)[O-])c1O	–	inconclusive: 56.2 µM [inhibitor, partial curve, poor fit]
CC1CCCCC1NC(=O)COC(=O)c1ccc([N+](=O)[O-])o1 (centres undefined)	inactive: -1.29%	–
CCCOC(=O)N1CCCC(c2nnc(CN3CCOCC3)n2C)C1 (centres undefined)	–	inconclusive: 3.16 µM [inhibitor, full curve]
O=Cc1ccc(OCc2ccc(C(=O)O)cc2)c(Cl)c1	–	inconclusive: 1.58 µM [inhibitor, full curve]
COC(=O)[C@]1(C)N[C@H](CN(C)S(=O)(=O)c2ccccc2)[C@@H]2C(=O)N(C)C(=O)[C@@H]21	–	inconclusive: 5.01 µM [inhibitor, full curve, poor fit]
O=S(=O)(c1ccc(Cl)cc1)N1CCC(N2CCCCCC2)CC1	–	inconclusive: 56.2 µM [inhibitor, partial curve, poor fit]
COc1ccc(OC)c(N2CC(O)(c3cccs3)[N+]3=C2SCCC3)c1 (centres undefined)	inactive: 6.67%	–
COc1ccc(Cn2cc(CN3CC(N4CCCCC4)CS3(=O)=O)nn2)cc1 (centres undefined)	–	inconclusive: 100 µM [inhibitor, single point]
Cc1cc(-c2ccccc2)nc(SCc2ccc(C(=O)O)o2)n1	inactive: -14.2%	–
Cc1ccccc1C(=O)Nc1ccc2c(c1)CCC2	–	inconclusive: 20 µM [inhibitor, partial curve, poor fit]
O=C(O)c1ccc(NC(=S)N2CCCCC2)cc1	–	inconclusive: 79.4 µM [inhibitor, single point]
CN1C[C@@H]2CCCN3CCC[C@@H]([C@H]23)[C@H]1CCCC(=O)Nc1ccc2c(c1)OCCO2	inactive: 26.9%	–
CCc1nc2c(c(-c3ccc(O)cc3)n1)CCN(Cc1ccc(C(F)(F)F)cc1)CC2	–	inconclusive: 50.1 µM [inhibitor, partial curve]
Cc1nn(-c2ccccc2)c2sc(-c3n[nH]c(=S)o3)cc12	–	inconclusive: 100 µM [inhibitor, partial curve, poor fit]
Cn1ccnc1C(NC(=O)Cc1n[nH]c(=O)c2ccccc12)c1cccc(F)c1 (centres undefined)	inactive: 16.1%	–
C[C@H](CO)N1C[C@H](C)[C@@H](CN(C)S(C)(=O)=O)Oc2c(NC(=O)c3ccncc3)cccc2C1=O	–	inconclusive: 7.08 µM [inhibitor, full curve, poor fit]
CCCCc1c(-c2ccccc2OC)ncn1Cc1ccc(Br)cc1	–	inconclusive: 44.7 µM [inhibitor, partial curve, poor fit]
CC(=O)OCC(=O)[C@@]1(O)CC[C@H]2[C@@H]3CCC4=CC(=O)C=C[C@]4(C)[C@@]3(F)[C@@H](O)C[C@@]21C	inactive: 16.2%	–
Cc1ccc(CNC(=O)c2cc(=O)c3c(C)cc(C)cc3o2)cc1	inactive: -20.9%	–
Cc1ccc(NC(=O)c2ccccc2F)cc1S(=O)(=O)N1CCCCCC1	inactive: -1.44%	–
COc1ccc(C(=O)Oc2cc(C)[nH]c(=O)c2[N+](=O)[O-])c(OC)c1	–	inconclusive: 50.1 µM [inhibitor, partial curve, poor fit]
COc1nc(Nc2cccc(C)c2)nc(N2CCCCC2)n1	–	inconclusive: 3.98 µM [inhibitor, full curve, poor fit]

Single values from above:
For Potency, `C[C@H](CO)N1C[C@H](C)[C@@H](CN(C)S(C)(=O)=O)Oc2c(NC(=O)c3ccncc3)cccc2C1=O` has inconclusive: 7.08 µM [inhibitor, full curve, poor fit]
For activity change, negative = inhibition, `Cn1ccnc1C(NC(=O)Cc1n[nH]c(=O)c2ccccc12)c1cccc(F)c1` (centres undefined) has inactive: 16.1%

(continued)

SMILES	activity change, negative = inhibition	Potency
O=C1COCC2(CN1Cc1ccc(F)cc1Cl)CN(c1ccc(C(F)(F)F)cn1)C2	–	inconclusive: 89.1 µM [inhibitor, partial curve]
CC(C)(C)C(=O)c1cn(CCOc2ccccc2F)c2ccccc12	–	inconclusive: 3.98 µM [inhibitor, full curve, poor fit]
O=C(O)c1ccc(NS(=O)(=O)c2ccc3c(c2)C(=O)c2ccccc2C3=O)cc1	inactive: -14.8%	–
Cc1cc([N+](=O)[O-])nn1Cc1c(F)c(F)c(F)c(F)c1F	inactive: -14.7%	–
O=C(c1ccccc1Cl)N1CCC(c2nn(-c3ccc(Cl)cc3)c(=O)[nH]2)CC1	–	active: 35.5 µM
CCCc1ccc2oc(C(=O)NCCc3cnn(C)c3)c(C)c2c1	–	inconclusive: 112 µM [inhibitor, single point]
Cc1ccc(OCc2nc(C3CCN(C(=O)NCc4ccc(F)cc4)CC3)no2)cc1	–	inconclusive: 22.4 µM [inhibitor, partial curve, poor fit]
COc1ccc(CCNC(=O)CSCc2c(F)cccc2Cl)cc1OC	inactive: -14.2%	–
CC(C)Cc1cc(C(=O)Nc2sc3c(c2C#N)CCC3)no1	–	inconclusive: 112 µM [inhibitor, single point]
CC[n+]1ccc(/C=C/c2c[nH]c3ccccc23)cc1	–	inconclusive: 112 µM [inhibitor, single point]
O=C(C1CCCCC1)N1CCCC(c2nc3c(nnn3Cc3ccccc3)c(=O)[nH]2)C1 (centres undefined)	inactive: 0.558%	–
CCN(CC)c1ccc(/C=C2\C(=O)c3ccc(C(=O)O)cc3C2=O)cc1	inactive: 7.17%	–
CN(C)c1cccc(NC2=CC(=[N+]3CCOCC3)CC(C)(C)C2)c1	–	inconclusive: 12.6 µM [inhibitor, partial curve, poor fit]
COc1ccc(Br)cc1CN1CCCCCCC1	–	inconclusive: 0.0891 µM [inhibitor, full curve, poor fit]
COC(=O)/C=C/[C@@H]1CCCN1c1ccc(OC)cc1	–	inconclusive: 44.7 µM [inhibitor, partial curve, poor fit]
CC(C)NC(=O)c1cccc(NC(=O)CCCC(=O)O)c1	–	inconclusive: 5.01 µM [inhibitor, full curve, poor fit]
O=C(O)CN1C(=O)/C(=C\c2cn(CC(=O)N3CCOCC3)c3ccccc23)SC1=S	–	inconclusive: 25.1 µM [inhibitor, partial curve, poor fit]
COc1cccc(NC(=O)CNC(C)CCC(C)C)c1 (centres undefined)	–	inconclusive: 39.8 µM [inhibitor, partial curve, poor fit]
COCC(C)n1c(C)cc(C(=O)CSc2nnnn2-c2ccc(O)cc2)c1C (centres undefined)	–	inconclusive: 89.1 µM [inhibitor, single point]
CC(=O)c1ccc(N2CCN(c3ncnc4c3nc3n4CCCC3)CC2)cc1	inactive: -11.1%	–
Cc1ccc(NC(=O)NC2CCCc3ccccc32)cc1 (centres undefined)	inactive: 1.67%	–
O=C(N/N=C/c1cc([N+](=O)[O-])cc([N+](=O)[O-])c1O)C(O)(c1ccccc1)c1ccccc1	–	inconclusive: 31.6 µM [inhibitor, partial curve, poor fit]
CCOC(=O)c1cc(C)[nH]c(=S)c1C#N	–	inconclusive: 3.16 µM [inhibitor, full curve, poor fit]

A draw from above in order of count of non-hydrogen atoms, rising.
SMILES	activity change, negative = inhibition	Potency
CC(C)NC(=O)c1cccc(NC(=O)CCCC(=O)O)c1	–	inconclusive: 5.01 µM [inhibitor, full curve, poor fit]
CCN(CC)c1ccc(/C=C2\C(=O)c3ccc(C(=O)O)cc3C2=O)cc1	inactive: 7.17%	–
CC(=O)c1ccc(N2CCN(c3ncnc4c3nc3n4CCCC3)CC2)cc1	inactive: -11.1%	–
